Laboratory results published in article PMC9834408, “The SPOC domain is a phosphoserine binding module that bridges transcription machinery with co- and post-transcriptional regulators” (Nature Communications, 2023).
Results are given in words; binding and its absence hold for the method and conditions named. In cells and extracts the contact can be indirect. For some of these results: Binding can be weak; no strength is given. For some of these results: Where a sequence is shown, tags or fusion partners need not be part of it.

By UniProt entry, the sequences of proteins in these tests, tags left out.
UniProt Q9H5H4: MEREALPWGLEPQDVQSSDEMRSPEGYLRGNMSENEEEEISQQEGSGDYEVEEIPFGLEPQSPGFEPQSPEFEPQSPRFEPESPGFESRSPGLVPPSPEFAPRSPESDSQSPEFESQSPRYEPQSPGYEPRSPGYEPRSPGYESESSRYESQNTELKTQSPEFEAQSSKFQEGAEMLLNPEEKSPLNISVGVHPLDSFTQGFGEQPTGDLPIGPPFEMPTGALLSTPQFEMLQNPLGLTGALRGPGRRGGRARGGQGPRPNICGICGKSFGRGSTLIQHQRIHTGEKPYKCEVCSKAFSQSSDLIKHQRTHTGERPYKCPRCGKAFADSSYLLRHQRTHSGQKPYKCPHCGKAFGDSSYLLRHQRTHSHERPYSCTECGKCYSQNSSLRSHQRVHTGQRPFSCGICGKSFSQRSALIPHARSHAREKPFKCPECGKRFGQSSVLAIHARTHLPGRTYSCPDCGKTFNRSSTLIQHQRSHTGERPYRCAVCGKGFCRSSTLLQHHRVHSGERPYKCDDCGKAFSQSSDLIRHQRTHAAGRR

Columns and labels:
Test in all cases: co-IP; anti-FLAG M2 beads; 3×FLAG-tagged SPOC domains, full-length or ΔSPOC proteins expressed in HEK293T; lysis in 50 mM Tris-Cl pH 8, 150 mM NaCl, 0.1% Triton with benzonase; elution with 3×FLAG peptide; western blot; performed once
[1] = target: 3×FLAG-NLS-RBM15-SPOC (human) (UniProt Q96T37)
[2] = target: 3×FLAG-RBM15 (human) (UniProt Q96T37)
[3] = target: 3×FLAG-DIDO3 ∆SPOC (human) (UniProt Q9BTC0)
[4] = target: 3×FLAG-PHF3 ∆SPOC (human) (UniProt Q92576)

Row | binding [1] | binding [2] | binding [3] | binding [4] | Substance
1 | binds | no binding | – | – | CK2 (casein kinase 2) (human (endogenous in HEK293T)) (enzyme)
2 | – | – | binds | binds | ZNF768 (from UniProt Q9H5H4 1-540)
